This note sets out measurements from PubChem BioAssay AID2685 (National Center for Advancing Translational Sciences (NCATS), 2010).

Some of the results follow. The main result of the screen is listed elsewhere. These columns were measured beside it and carry no call. The list favours compounds with an active or inconclusive main result. The note in brackets gives the kind of curve behind each potency; many fits are weak.

This assay can be described thus: qHTS Assay for Lipid Storage Modulators in Drosophila S3 Cells.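 For cell number change: cells counted by Cell Tracker Red CMTPX staining in the red channel.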 The settings on record: BODIPY lipid droplet fluorescence, 18-24 h; for cell number change: measured here: cell count max response, cells fed with added oleic acid. Put shortly:
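Drosophila S3 cells got compounds at several concentrations plus oleic acid (400 uM solution). Laser-scanning cytometry with 488 nm excitation read lipid droplets at 500-530 nm and cells at 575-640 nm. Percent activity was relative to 20 uM Triacsin C.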
Background: Quantitative high-throughput screening tests each substance at several concentrations.

Where [1] appears, read: measured here: cell number channel AC50, cells fed with added oleic acid.
The mark [2] stands for this setting: measured here: lipid fluorescence (Fed channel) AC50, cells fed with added oleic acid.

What is called AC50 is the midpoint of the concentration-response curve, whichever way the signal moves. Consider `Cc1ccc(S(=O)(=O)N(C)CCCC(=O)n2nc(C)cc2C)cc1`, for which the cell number change was -24.8%. In addition, the AC50 under setting [1] was 4.11 µM [falling, single point]. Under setting [2], the AC50 is 2.31 µM [falling, full curve].

For `Cc1ccc(NC(=O)Cc2nc(CCl)cs2)cc1`, the cell number change is 4.77%. In addition, the AC50 under setting [1] was 0.731 µM [falling, partial curve, poor fit].

For `O=C(Nc1cccc(Oc2c(F)c(F)c(F)c(F)c2F)c1)N1C[C@@H]2C[C@@H](C1)c1cccc(=O)n1C2`, the cell number change is -3.41%. In addition, the AC50 under setting [2] was 2.06 µM [rising, full curve, poor fit].

Turning to `Nc1nc(CN2CCN(c3ccccc3F)CC2)nc(Nc2ccccc2)n1`, the AC50 reads like this: under setting [1], 2.31 µM [rising, partial curve]; under setting [2], 2.59 µM [rising, full curve].

As to `CC(=O)NC12CC3CC(C1)CC(C(=O)N1CCN(S(=O)(=O)c4ccc(C(C)C)cc4)CC1)(C3)C2`, the cell number change is 1.81%. For the same compound, the AC50 under setting [2] is 0.164 µM [rising, full curve, poor fit].

As for `O=C(Nc1cccc2ccccc12)C(=O)C1C(=O)Nc2ccccc21` (configuration not stated), the cell number change is 14.4%. Also, the AC50 under setting [2] is 4.11 µM [rising, full curve, poor fit].

In the case of `Cc1ccc2cc(C(c3nnnn3C3CCCC3)N3CCOCC3)c(=O)[nH]c2c1C` (configuration not stated), the cell number change was -14.1%. In addition, the AC50 under setting [1] was 7.31 µM [falling, single point]. Under setting [2], the AC50 was 6.51 µM [falling, single point].

Consider `CN(C(=O)c1ccc2c(c1)C(=O)N(CCC1=CCCCC1)C2=O)C1CCCCC1`, for which the cell number change is -38.1%. In addition, under setting [1], the AC50 is 32.6 µM [falling, single point]. Also, the AC50 under setting [2] is 23.1 µM [falling, partial curve].

In the case of `COc1ccc(OC)c(NC(=O)CSc2nc(C)cs2)c1`, the cell number change came to 51.3%. The AC50 under setting [1] was 4.61 µM [rising, full curve]. The AC50 under setting [2] was 0.58 µM [rising, single point].

On to `CC(Sc1nc(-c2ccccc2)cc(C(F)(F)F)n1)C(=O)N1CCOCC1` (configuration not stated), for which the cell number change was -32.4%. Besides, the AC50 under setting [1] was 9.2 µM [falling, partial curve]. Also, the AC50 under setting [2] is 9.2 µM [falling, partial curve].

Consider `C=CCc1cccc2cc(C(=O)NNC(=O)CC#N)c(=O)oc12`, for which the cell number change is 25.7%. Further, the concentration at half-maximal activity (AC50) under setting [2] was 2.31 µM [rising, full curve].

Take `CCOc1ccc(CCNC(=O)COC(=O)Cn2nc(C)c([N+](=O)[O-])c2C)cc1OCC`: the cell number change is 4.31%. For the same compound, the AC50 under setting [2] is 23.1 µM [falling, partial curve, poor fit].

For `NC(=O)C1CCN(CC(=O)Nc2ccc(S(=O)(=O)N3CCOCC3)cc2)CC1`, the cell number change was determined as 6.96%.

Turning to `Clc1ccccc1-c1nc2ccccc2c2nncn12`, the cell number change is 45.5%. Further, the AC50 under setting [1] was 7.31 µM [rising, partial curve].
